Assay results as given in PMC3264873 (Pharmaceutical Research, 2011).

Molecular target: T1, OATP1B1 (Homo sapiens, UniProt Q9Y6L6)
T1 sequence (Q9Y6L6 1-691): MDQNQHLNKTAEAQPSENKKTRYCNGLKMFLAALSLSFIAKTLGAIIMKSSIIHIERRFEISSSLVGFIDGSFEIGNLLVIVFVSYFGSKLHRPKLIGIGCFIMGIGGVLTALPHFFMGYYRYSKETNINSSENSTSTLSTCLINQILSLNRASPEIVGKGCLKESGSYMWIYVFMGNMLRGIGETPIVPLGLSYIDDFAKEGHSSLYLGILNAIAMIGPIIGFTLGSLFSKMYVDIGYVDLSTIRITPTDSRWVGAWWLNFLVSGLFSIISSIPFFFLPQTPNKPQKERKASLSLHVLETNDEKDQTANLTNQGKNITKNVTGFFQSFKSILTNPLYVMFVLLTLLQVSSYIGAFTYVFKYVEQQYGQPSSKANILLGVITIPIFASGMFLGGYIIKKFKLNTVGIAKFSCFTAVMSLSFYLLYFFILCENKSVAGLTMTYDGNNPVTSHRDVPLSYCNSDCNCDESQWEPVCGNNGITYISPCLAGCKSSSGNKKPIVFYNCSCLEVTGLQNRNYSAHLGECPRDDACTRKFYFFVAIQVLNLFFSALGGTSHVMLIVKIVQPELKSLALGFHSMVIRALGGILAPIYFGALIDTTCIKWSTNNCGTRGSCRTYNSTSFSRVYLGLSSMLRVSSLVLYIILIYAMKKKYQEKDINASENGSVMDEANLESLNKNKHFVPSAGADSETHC
Assay: Michaelis-Menten uptake kinetics in HEK293 cells stably expressing OATP1B1
Assay type: cell-based

- Uptake in OATP1B1 cells relative to mock-transfected cells (at 5 min (E17βG) and 2 min (atorvastatin)): ≥ 3 times
- Vmax of OATP1B1-mediated uptake (atorvastatin, 24-well plates, HEK293-OATP1B1): 6.61 (± 1.24) pmol/min/μg protein
SMILES: CC(C)c1c(C(=O)Nc2ccccc2)c(-c2ccccc2)c(-c2ccc(F)cc2)n1CC[C@@H](O)C[C@@H](O)CC(=O)O [Atorvastatin]
